Results: US20250109127A1, “METHODS OF USE OF PHENOXYPROPYLAMINE COMPOUNDS TO TREAT DEPRESSION” (Minerva Neurosciences, Inc., priority 2013, published 2025)
Several values for one entry are separate records, joined by “and”; a condition that tells them apart may be missing. Equal entries are not always repeated. Structures can show the parent of a compound that is named as a salt. Further values from the same series stand in other lists.

Key:
[1] = test system: norepinephrin release in the rat prefrontal cortex; assay: Microdialysis: norepinephrine release in prefrontal cortex after I.P. administration; format: in vivo; conditions: hydrochloride; for NOREPINEPHRIN (% of respective basal), individual animal: 0.3 mg/kg I.P., c2-c9 = R#11,12,18,23,29,30,17,24; for Norepinephrin release, individual animals: 3 mg/kg IP, per animal R#15,16,21,22,27,28,09,10; for NOREPINEPHRIN in dialysate, individual animals: SON-117 0.1 mg/kg I.P., 0.1 mg/kg
Method: (§1) The aim of the study was to evaluate, using microdialysis, the effects of an intraperitoneal (I.P.) administration in rats of three different doses of SON-117 on dopamine and its metabolites, serotonin and its metabolite (5-HIAA), and norepinephrine levels in prefrontal cortex.
(§2) Thirty-two adult male Wistar rats were used for the whole study (4 groups of eight animals planned for the study, Table 1).
(§3) Surgery was performed on rats weighing about 300 g at the beginning of the experiments. Rats were anaesthetized with Ketamine (50 mg/kg) & Xylazine (15 mg/kg) by intramuscular administration. The animals were placed in a stereotaxic apparatus in the flat-skull position at a constant setting of −3.3 mm between ear bars and the incisor bar. The animals were treated with a local anesthesic (xylocaine 1%, Astra Zeneca) and an analgesic (Temgesic, from Schering Plough, 0.05 mg/kg, s.c.). A rostrocaudal midline incision was made with a lancet to expose the dorsal skull surface. The “stereotaxic zero” was defined by the Bregma in accordance with Paxinos and Watson's atlas (1986). A hole was drilled in the skull with a drill and the meninges were pierced with a sterile needle to implant a CMA12 guide cannula which later received the dialysis probe.
(§4) Coordinates used for implanting guide cannula in prefrontal cortex from Bregma were anteroposterior 3.7 mm, mediolateral 0.8 mm, and dorsoventral −2 mm (top of the probe was at −5 mm). The guide cannula was fixed to the skull with two stainless steel screws (1.88 mm outside diameter) anchored. An application of dental cement was added. A plastic collar allowed each animal to be tethered to a Swivel assembly of the CMA 120 awake animal system. Following surgery, rats were kept in individual cages and allowed to recover for a minimum of 3-5 days before the experimentation. The rats were handled and put in plastic bowl for 10 min at least every day to habituate the animals to their new environment for the dialysis. An I.P. administration with saline was also performed every day.
(§5) Dialysis probes (CMA12/3 mm, membrane, 20 kD cut-off, Carnegie Medicine, Stockholm, Sweden), were carefully washed before inserting into the guide cannula. The wash was performed with the artificial cerebrospinal fluid (aCSF) medium (NaCl 147 mM, KCl 2.7 mM, CaCl2 1.2 mM, MgCl2 0.85 mM) at room temperature. The dialysis system was then equilibrated at 20° C. at a perfusion rate of 1 μl/min with a Carnegie pump (CMA100). All catheters (FEP tubing, internal volume of 1.2 μl/10 cm, and tubing adaptors) used for microdialysis were treated in the same conditions.
(§6) The probes duly prepared were inserted into the guide cannula and the CMA120 Swivel assembly secured to the animal using a plastic collar. Flow through the dialysis probe with aCSF was maintained at a rate of 1 μl/min during the whole experimentation. The first four fractions (corresponding to 2 hours) were discarded to avoid the effects of parenchymal disturbance and to ensure that an approximate steady-state level was reached. Fractions were then collected over a period of 8.5 h during which time the animals remained quiet. The dialysates were automatically collected with an autosampler (microfraction collector CMA 140, Carnegie Medicin) and stored at −80° C. until analysis. […] Perfusion was then maintained for 7 hours with aCSF. The dialysates (30 μl) were collected into 300 μl vials, transferred into dry ice and then kept frozen (−80° C.) until analysis. Frozen samples were shipped to a partner for analysis. At the end of the microdialysis study, a PBS with colored ink was perfused through the probe in order to visualize the dialyzed area.
Catecholamine assay: Concentrations of dopamine, DOPAC, HVA, 5-HIAA, 5-HT, and norepinephrin were determined for each sample by HPLC coupled with electrochemical detection. […]

[2] = test system: 5-HIAA release in the rat prefrontal cortex; assay: Microdialysis: 5-HIAA release in prefrontal cortex after I.P. administration; format: in vivo; conditions: hydrochloride; for 5-HIAA (% of respective basal), individual animal: 0.1 mg/kg I.P., c2-c9 = R#13,14,20,19,25,26,31,32; for 5-HIAA release, individual animals: 0.3 mg/kg I.P., one column per animal R#11,12,18,23,29,30,17,24; for 5-HIAA release (% of basal levels) measured in dialysates: SON-117 3 mg/kg IP, individual animals, 3 mg/kg
Method: as §1, §2, §3, §4, §5, §6
Catecholamine assay: Concentrations of dopamine, DOPAC, HVA, 5-HIAA, 5-HT, and norepinephrin were determined for each sample by HPLC coupled with electrochemical detection.

[3] = T-30 min-T0 (before administration)
[4] = T-1 h 30-T-1 h (before administration)
[5] = T-1 h-T-30 min (before administration)

`Cc1nnc(-c2cc3c(OC[C@@H](O)CN4CCC(c5ccc(Cl)c(Cl)c5)CC4)cccc3o2)o1` [SON-117, (S)-1-(4-(3,4-dichlorophenyl)piperidino)-3-(2-(5-methyl-1,3,4-oxadiazol-2-yl)benzo(b)furan-4-yloxy)-2-propanol hydrochloride] was tested, and the “NOREPINEPHRIN (% of respective basal), individual animal” value (“NOREPINEPHRIN (% of respective basal)” for short) ([1]; T6 h 30-T7 h) was 106.88 % of respective basal and 177.51 % of respective basal and 198.02 % of respective basal and 124.61 % of respective basal and 145.21 % of respective basal and 117.13 % of respective basal and 160.58 % of respective basal and 97.71 % of respective basal, the “NOREPINEPHRIN (% of respective basal)” value ([1]; T6 h-T6 h 30) was 155.95 % of respective basal and 92.51 % of respective basal and the “NOREPINEPHRIN (% of respective basal)” value [1, 3] was 91.05 % of respective basal and 99.72 % of respective basal and 92.64 % of respective basal and 93.47 % of respective basal and 105.78 % of respective basal and 79.20 % of respective basal and 104.93 % of respective basal and 91.00 % of respective basal. For the same molecule, the “NOREPINEPHRIN (% of respective basal)” value [1, 4] was 104.69 % of respective basal and 97.58 % of respective basal and 106.89 % of respective basal and 110.24 % of respective basal and 96.60 % of respective basal and 109.72 % of respective basal and 102.28 % of respective basal and 114.98 % of respective basal, the “NOREPINEPHRIN (% of respective basal)” value [1, 5] was 104.24 % of respective basal and 102.69 % of respective basal and 100.47 % of respective basal and 96.29 % of respective basal and 97.62 % of respective basal and 111.08 % of respective basal and 92.78 % of respective basal and 94.02 % of respective basal and the “Norepinephrin release, individual animals” value (“Norepinephrin release” below) ([1]; T0-T30 min) was 83.80 % of respective basal and 117.15 % of respective basal and 86.45 % of respective basal and 99.99 % of respective basal and 75.18 % of respective basal and 99.40 % of respective basal and 105.73 % of respective basal and 92.56 % of respective basal. For the same molecule, the “Norepinephrin release” value ([1]; T6 h 30-T7 h) was 107.15 % of respective basal and 158.12 % of respective basal and 46.32 % of respective basal, the “Norepinephrin release” value [1, 3] was 96.67 % of respective basal and 105.91 % of respective basal and 99.20 % of respective basal and 98.51 % of respective basal and 90.82 % of respective basal and 92.21 % of respective basal and 94.30 % of respective basal and 101.73 % of respective basal and the “Norepinephrin release” value [1, 4] was 101.41 % of respective basal and 100.13 % of respective basal and 101.32 % of respective basal and 97.97 % of respective basal and 103.83 % of respective basal and 112.21 % of respective basal and 103.39 % of respective basal and 95.91 % of respective basal. The “Norepinephrin release” value [1, 5] was 101.93 % of respective basal and 93.96 % of respective basal and 99.48 % of respective basal and 103.52 % of respective basal and 105.36 % of respective basal and 95.58 % of respective basal and 102.31 % of respective basal and 102.36 % of respective basal, the “NOREPINEPHRIN in dialysate, individual animals” value (shortened to “NOREPINEPHRIN in dialysate”) ([1]; T6 h 30-T7 h) was 213.29 % of respective basal and 124.07 % of respective basal and 158.87 % of respective basal and 80.73 % of respective basal and 98.24 % of respective basal and 109.09 % of respective basal and 106.66 % of respective basal and 49.82 % of respective basal and the “NOREPINEPHRIN in dialysate” value ([1]; T6 h-T6 h 30) was 98.91 % of respective basal and 59.68 % of respective basal. For the same molecule, the “NOREPINEPHRIN in dialysate” value ([1]; T-30 min-T0 (pre-dose)) was 86.88 % of respective basal and 96.74 % of respective basal and 99.36 % of respective basal and 96.59 % of respective basal and 87.30 % of respective basal and 92.37 % of respective basal and 88.10 % of respective basal and 83.32 % of respective basal, the “NOREPINEPHRIN in dialysate” value ([1]; T-1 h 30-T-1 h (pre-dose)) was 123.08 % of respective basal and 109.14 % of respective basal and 102.00 % of respective basal and 104.00 % of respective basal and 103.03 % of respective basal (2×) and 112.64 % of respective basal and 118.36 % of respective basal and the “NOREPINEPHRIN in dialysate” value ([1]; T-1 h-T-30 min (pre-dose)) was 90.04 % of respective basal and 94.13 % of respective basal and 98.64 % of respective basal and 99.40 % of respective basal and 109.67 % of respective basal and 104.59 % of respective basal and 99.26 % of respective basal and 98.32 % of respective basal. For the same molecule, the “5-HIAA (% of respective basal), individual animal” value (from here on “5-HIAA (% of respective basal)”) ([2]; T0-T30 min) was 89.00 % of respective basal and 106.36 % of respective basal and 92.77 % of respective basal and 96.09 % of respective basal and 85.06 % of respective basal and 99.4 % of respective basal, the “5-HIAA (% of respective basal)” value ([2]; T6 h 30-T7 h) was 151.69 % of respective basal and 75.07 % of respective basal and 104.47 % of respective basal and 71.87 % of respective basal and the “5-HIAA (% of respective basal)” value [2, 3] was 107.30 % of respective basal and 105.878 % of respective basal and 99.90 % of respective basal and 107.70 % of respective basal and 97.49 % of respective basal and 108.28 % of respective basal and 90.07 % of respective basal and 95.14 % of respective basal. For the same molecule, the “5-HIAA (% of respective basal)” value [2, 4] was 103.54 % of respective basal and 96.38 % of respective basal and 103.27 % of respective basal and 96.06 % of respective basal and 90.91 % of respective basal and 81.32 % of respective basal and 112.18 % of respective basal and 104.59 % of respective basal, the “5-HIAA (% of respective basal)” value [2, 5] was 89.16 % of respective basal and 97.758 % of respective basal and 96.93 % of respective basal and 96.24 % of respective basal and 111.59 % of respective basal and 110.40 % of respective basal and 97.74 % of respective basal and 100.27 % of respective basal and the “5-HIAA release, individual animals” value ([2]; T0-T30 min) was 102.94 % of respective basal and 90.89 % of respective basal and 108.76 % of respective basal and 101.63 % of respective basal and 86.48 % of respective basal and 107.66 % of respective basal and 116.13 % of respective basal and 113.00 % of respective basal. The “5-HIAA release, individual animals” value ([2]; T6 h 30-T7 h) was 94.07 % of respective basal and 93.86 % of respective basal, the “5-HIAA release, individual animals” value [2, 3] was 100.18 % of respective basal and 101.96 % of respective basal and 105.97 % of respective basal and 101.81 % of respective basal and 100.77 % of respective basal and 93.72 % of respective basal and 98.06 % of respective basal and 108.22 % of respective basal and the “5-HIAA release, individual animals” value [2, 4] was 94.29 % of respective basal and 100.12 % of respective basal and 90.67 % of respective basal and 98.49 % of respective basal and 94.27 % of respective basal and 96.96 % of respective basal and 100.87 % of respective basal and 93.90 % of respective basal. For the same molecule, the “5-HIAA release, individual animals” value [2, 5] was 105.52 % of respective basal and 97.92 % of respective basal and 103.36 % of respective basal and 99.69 % of respective basal and 104.96 % of respective basal and 109.32 % of respective basal and 101.10 % of respective basal and 97.88 % of respective basal, the “5-HIAA release (% of basal levels) measured in dialysates” value ([2]; T0-T30 min) was 101.21 % of basal levels and 93.16 % of basal levels and 90.36 % of basal levels and 111.88 % of basal levels and 92.81 % of basal levels and 106.00 % of basal levels and 100.80 % of basal levels and 103.83 % of basal levels and the “5-HIAA release (% of basal levels) measured in dialysates” value ([2]; T6 h 30-T7 h) was 68.84 % of basal levels and 70.77 % of basal levels and 90.47 % of basal levels.
